The other results are listed elsewhere or left out. Residues, ends and D or L forms follow the SMILES beside them. *: point of attachment. Cbz = O=C(OCc1ccccc1)*
What was measured:
Assay in all cases: log2 fold change, soluble protein after heating vs DMSO (PISA); higher = thermal stabilisation; K562 cells, 10 uM, 30 min; active = over 0.2 and 3.5 SD of the protein, either way, in both replicates (recomputed)
IRAK-1-4 Inhibitor I = compound: C1COCCN1CCN2C3=CC=CC=C3N=C2NC(=O)C4=CC(=CC=C4)[N+](=O)[O-] [IRAK-1-4 Inhibitor I]
In short: (§1)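 K562 cells at 2×10^6 cells/mL were exposed to 10 μM compound for 30 min, then aliquots were heated for 3 min across 48°C-58°C, pooled, and extracted in PBS containing 0.5% NP-40 at 4°C. The supernatant after 21,000xg for 90 min was taken as soluble protein and measured by TMTpro 16plex LC-MS/MS with channel sums equalised. Thermal stability is reported relative to control samples, with values from duplicates. Fold changes are given on a log2 scale.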

The chains behind the UniProt entries cited, without tags or fusion partners. Where a name states a change or a piece, a line headed by the entry shows the natural chain unless it says otherwise.
UniProt Q9Y689: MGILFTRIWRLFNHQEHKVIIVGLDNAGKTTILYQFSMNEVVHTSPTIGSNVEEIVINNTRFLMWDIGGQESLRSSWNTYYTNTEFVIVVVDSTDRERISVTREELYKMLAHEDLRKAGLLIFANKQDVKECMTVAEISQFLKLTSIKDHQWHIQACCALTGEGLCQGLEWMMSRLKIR
UniProt Q9UBL3, whole entry, looked up: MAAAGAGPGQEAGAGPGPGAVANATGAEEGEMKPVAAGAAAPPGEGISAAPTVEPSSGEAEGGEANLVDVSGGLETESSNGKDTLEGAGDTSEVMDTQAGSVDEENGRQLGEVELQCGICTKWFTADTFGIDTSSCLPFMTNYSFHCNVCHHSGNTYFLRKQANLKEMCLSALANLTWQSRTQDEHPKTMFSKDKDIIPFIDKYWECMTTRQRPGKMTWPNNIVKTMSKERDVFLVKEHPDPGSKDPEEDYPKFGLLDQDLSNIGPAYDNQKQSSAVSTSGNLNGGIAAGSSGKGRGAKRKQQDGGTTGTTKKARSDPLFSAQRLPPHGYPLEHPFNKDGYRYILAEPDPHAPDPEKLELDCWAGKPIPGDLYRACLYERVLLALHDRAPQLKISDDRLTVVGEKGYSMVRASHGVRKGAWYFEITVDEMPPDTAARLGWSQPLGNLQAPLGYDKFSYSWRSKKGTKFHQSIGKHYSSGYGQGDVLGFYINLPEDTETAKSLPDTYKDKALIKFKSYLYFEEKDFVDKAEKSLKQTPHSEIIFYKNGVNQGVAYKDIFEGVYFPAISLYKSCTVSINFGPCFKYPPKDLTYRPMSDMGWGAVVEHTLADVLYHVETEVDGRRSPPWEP
UniProt Q93084: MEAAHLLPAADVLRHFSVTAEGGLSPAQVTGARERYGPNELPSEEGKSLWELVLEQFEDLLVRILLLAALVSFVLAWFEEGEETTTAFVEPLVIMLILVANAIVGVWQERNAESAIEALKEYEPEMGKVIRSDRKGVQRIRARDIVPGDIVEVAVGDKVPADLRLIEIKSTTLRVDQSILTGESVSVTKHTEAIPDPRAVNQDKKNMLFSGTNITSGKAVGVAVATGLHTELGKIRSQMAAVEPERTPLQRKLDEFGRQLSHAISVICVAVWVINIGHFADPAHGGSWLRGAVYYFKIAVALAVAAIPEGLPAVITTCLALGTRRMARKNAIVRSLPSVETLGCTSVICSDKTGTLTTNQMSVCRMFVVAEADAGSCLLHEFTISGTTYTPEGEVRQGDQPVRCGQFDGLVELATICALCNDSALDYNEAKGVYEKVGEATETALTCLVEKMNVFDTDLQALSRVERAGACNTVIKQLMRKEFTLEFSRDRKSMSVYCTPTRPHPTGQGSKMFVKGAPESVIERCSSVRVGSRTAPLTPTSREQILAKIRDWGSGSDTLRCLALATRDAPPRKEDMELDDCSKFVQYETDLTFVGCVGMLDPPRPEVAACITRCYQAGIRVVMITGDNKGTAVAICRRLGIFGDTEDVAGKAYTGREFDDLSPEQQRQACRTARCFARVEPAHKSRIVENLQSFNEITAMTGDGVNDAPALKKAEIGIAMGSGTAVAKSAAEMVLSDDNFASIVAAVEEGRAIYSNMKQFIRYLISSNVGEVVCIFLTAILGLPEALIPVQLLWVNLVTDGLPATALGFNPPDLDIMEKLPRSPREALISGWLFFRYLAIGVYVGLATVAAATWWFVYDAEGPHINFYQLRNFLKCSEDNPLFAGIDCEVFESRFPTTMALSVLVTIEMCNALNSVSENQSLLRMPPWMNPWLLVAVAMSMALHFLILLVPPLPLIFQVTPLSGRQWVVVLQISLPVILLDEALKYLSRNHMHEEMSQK
UniProt Q8IUR7, whole entry, looked up: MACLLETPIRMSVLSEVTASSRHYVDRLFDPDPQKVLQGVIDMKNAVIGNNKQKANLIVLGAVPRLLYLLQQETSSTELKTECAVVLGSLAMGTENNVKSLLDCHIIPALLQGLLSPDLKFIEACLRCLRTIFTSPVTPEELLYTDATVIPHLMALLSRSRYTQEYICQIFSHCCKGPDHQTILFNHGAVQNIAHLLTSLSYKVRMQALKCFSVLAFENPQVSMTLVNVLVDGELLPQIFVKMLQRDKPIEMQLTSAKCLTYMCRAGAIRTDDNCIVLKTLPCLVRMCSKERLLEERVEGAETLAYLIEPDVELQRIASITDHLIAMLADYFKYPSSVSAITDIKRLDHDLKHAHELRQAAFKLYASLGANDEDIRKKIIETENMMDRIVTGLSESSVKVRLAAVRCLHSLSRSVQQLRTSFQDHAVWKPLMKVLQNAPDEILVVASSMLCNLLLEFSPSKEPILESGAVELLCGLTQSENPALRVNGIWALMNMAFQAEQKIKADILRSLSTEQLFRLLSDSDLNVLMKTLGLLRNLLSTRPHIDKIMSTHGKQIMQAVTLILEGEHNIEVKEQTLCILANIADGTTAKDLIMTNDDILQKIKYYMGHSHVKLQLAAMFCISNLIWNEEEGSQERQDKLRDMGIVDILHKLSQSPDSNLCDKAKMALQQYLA
UniProt P35670: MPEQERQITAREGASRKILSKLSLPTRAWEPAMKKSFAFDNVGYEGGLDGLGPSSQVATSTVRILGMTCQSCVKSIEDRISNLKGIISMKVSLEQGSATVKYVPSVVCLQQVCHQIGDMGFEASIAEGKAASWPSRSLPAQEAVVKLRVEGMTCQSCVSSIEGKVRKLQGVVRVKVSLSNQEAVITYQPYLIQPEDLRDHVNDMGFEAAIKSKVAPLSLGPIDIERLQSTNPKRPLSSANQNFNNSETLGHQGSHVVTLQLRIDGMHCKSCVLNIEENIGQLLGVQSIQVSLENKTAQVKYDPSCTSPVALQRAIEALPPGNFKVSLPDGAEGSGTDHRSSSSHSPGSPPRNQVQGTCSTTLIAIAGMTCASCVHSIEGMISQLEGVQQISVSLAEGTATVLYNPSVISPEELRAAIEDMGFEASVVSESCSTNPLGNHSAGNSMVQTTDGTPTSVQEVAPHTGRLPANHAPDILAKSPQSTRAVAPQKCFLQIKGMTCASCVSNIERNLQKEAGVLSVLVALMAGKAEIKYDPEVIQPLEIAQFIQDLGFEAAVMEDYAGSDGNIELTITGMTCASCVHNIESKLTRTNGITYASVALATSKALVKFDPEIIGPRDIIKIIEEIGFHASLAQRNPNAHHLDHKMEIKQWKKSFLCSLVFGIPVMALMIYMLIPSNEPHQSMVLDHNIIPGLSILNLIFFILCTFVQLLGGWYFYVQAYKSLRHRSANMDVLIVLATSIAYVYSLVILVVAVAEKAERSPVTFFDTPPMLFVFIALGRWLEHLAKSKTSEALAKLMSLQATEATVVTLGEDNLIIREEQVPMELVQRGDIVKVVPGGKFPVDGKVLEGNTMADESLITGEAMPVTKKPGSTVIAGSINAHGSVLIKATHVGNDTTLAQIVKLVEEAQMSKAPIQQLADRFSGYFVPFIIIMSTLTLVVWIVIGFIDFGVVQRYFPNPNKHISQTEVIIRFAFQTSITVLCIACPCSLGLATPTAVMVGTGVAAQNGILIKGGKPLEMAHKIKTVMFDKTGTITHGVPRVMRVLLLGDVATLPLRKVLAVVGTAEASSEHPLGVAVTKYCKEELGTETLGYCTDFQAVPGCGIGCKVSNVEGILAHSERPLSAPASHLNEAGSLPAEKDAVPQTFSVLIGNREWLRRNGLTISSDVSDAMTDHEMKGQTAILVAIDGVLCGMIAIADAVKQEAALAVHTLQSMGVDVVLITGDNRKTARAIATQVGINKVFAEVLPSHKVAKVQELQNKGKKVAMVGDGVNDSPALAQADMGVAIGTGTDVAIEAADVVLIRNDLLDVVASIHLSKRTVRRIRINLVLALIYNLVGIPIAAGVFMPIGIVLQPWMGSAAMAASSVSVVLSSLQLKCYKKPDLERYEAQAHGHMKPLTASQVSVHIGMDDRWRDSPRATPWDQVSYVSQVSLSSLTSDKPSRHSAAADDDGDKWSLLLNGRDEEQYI
UniProt O75348, whole entry, looked up: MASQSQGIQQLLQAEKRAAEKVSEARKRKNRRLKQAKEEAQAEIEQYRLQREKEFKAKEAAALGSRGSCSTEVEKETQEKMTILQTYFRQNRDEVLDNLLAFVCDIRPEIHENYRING
UniProt Q16864, whole entry, looked up: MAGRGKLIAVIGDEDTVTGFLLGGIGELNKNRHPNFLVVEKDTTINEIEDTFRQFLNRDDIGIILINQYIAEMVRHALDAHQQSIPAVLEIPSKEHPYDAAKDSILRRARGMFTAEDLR
UniProt O00244: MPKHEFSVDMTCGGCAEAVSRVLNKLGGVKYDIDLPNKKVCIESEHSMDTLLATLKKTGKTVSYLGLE
UniProt O75915: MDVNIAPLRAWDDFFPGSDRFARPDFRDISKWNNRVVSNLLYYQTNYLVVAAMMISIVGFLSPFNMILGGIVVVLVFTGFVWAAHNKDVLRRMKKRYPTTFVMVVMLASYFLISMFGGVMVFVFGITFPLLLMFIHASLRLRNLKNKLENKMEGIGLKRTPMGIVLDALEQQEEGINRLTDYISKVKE
UniProt Q9Y4P1: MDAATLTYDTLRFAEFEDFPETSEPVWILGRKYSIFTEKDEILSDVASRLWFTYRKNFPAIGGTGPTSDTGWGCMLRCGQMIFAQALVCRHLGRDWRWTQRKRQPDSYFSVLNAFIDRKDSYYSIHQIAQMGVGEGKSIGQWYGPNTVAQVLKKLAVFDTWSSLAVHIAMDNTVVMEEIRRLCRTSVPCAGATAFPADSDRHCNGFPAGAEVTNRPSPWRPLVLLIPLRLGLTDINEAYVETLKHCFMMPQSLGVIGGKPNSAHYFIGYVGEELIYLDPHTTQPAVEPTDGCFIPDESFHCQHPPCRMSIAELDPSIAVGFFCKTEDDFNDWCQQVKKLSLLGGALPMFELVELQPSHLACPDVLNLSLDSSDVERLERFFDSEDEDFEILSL
UniProt Q9NWX5: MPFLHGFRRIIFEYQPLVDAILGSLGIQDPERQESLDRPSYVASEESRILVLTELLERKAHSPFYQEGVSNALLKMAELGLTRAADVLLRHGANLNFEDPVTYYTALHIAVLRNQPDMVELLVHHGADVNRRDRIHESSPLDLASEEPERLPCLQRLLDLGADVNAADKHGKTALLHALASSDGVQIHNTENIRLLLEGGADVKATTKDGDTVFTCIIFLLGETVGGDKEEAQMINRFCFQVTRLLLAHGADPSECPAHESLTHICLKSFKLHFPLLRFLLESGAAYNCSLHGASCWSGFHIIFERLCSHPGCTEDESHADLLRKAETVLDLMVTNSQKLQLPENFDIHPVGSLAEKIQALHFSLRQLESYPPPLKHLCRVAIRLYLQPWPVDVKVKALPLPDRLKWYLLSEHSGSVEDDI

ibrutinib = compound: C=CC(=O)N1CCC[C@@H](n2nc(-c3ccc(Oc4ccccc4)cc3)c3c(N)ncnc32)C1 [ibrutinib]
In short: as §1

[1] = compound: CC(=O)c1cnc2ccc(-c3cc(Cl)c(O)c(Cl)c3)nc2c1N[C@H]1CC[C@H](CN(C)C)CC1
In short: as §1

ralimetinib = compound: CC(C)(C)Cn1c(N)nc2ccc(-c3[nH]c(C(C)(C)C)nc3-c3ccc(F)cc3)nc21 [ralimetinib]
In short: as §1

[2] = compound: CC(C)(O)CC(=O)NCCn1ccc2ncnc(Nc3ccc(Oc4cccc(C(F)(F)F)c4)c(Cl)c3)c21
In short: as §1

[3] = compound: CC(C)C1=C2N=C(C=C(N2N=C1)NCC3=CC=CC=C3)NCCCCCCN
In short: as §1

[4] = compound: CC(C)C[C@@H](C=O)NC(=O)[C@H](CC(C)C)NC(=O)[C@H](CC(C)C)NC(=O)OCc1ccccc1
In short: as §1

pinometostat = compound: CC(C)N(C[C@H]1O[C@@H](n2cnc3c(N)ncnc32)[C@H](O)[C@@H]1O)[C@H]1C[C@@H](CCc2nc3cc(C(C)(C)C)ccc3[nH]2)C1 [pinometostat]
In short: as §1

[5] = compound: CC1=C(C(CC(=O)N1)C2=CC=C(C=C2)C(F)(F)F)C(=O)NC3=C(C=C4C(=C3)C=NN4)F
In short: as §1

[6] = compound: CC1=C(C2=C(C=C1)C(=O)C3=CC=CC=C3N2CCCN)C
In short: as §1

[7] = compound: CC1=C(C=C(C=C1)NC(=O)C2=CC(=CC=C2)C(C)(C)C#N)NC3=CC4=C(C=C3)N=CN(C4=O)C
In short: as §1

[8] = compound: CC1=C(C=C(C=C1)NC(=O)C2=CC(=CC=C2)N(C)C)NC(=O)C3=CC=C(C=C3)O
In short: as §1

[9] = compound: CC1=CC=C(C=C1)SC2=C3C=C(SC3=CN=C2)C(=O)N
In short: as §1

[10] = compound: CC1=NC(=CC=C1)C2=C(N=C(N2)C(C)(C)C)C3=CC4=NC=CN=C4C=C3
In short: as §1

Nexturastat A = compound: CCCCN(Cc1ccc(C(=O)NO)cc1)C(=O)Nc1ccccc1 [Nexturastat A]
In short: as §1

[11] = compound: CCCS(=O)(=O)Nc1ccc(F)c(C(=O)c2c[nH]c3ncc(Cl)cc23)c1F
In short: as §1

[12] = compound: CCCc1cc(C)[nH]c(=O)c1CNC(=O)c1cc(-c2ccnc(N3CCN(C)CC3)c2)cc2c1cnn2C(C)C
In short: as §1

givinostat = compound: CCN(CC)Cc1ccc2cc(COC(=O)Nc3ccc(C(=O)NO)cc3)ccc2c1 [givinostat]
In short: as §1

barasertib = compound: CCN(CCCOc1ccc2c(Nc3cc(CC(=O)Nc4cccc(F)c4)[nH]n3)ncnc2c1)CCOP(=O)(O)O [barasertib]
In short: as §1

vemurafenib = compound: CCCS(=O)(=O)Nc1ccc(F)c(C(=O)c2c[nH]c3ncc(-c4ccc(Cl)cc4)cc23)c1F [vemurafenib]
In short: as §1

| Target | log2 fold change (IRAK-1-4 Inhibitor I) | log2 fold change (ibrutinib) | log2 fold change [1] | log2 fold change (ralimetinib) | log2 fold change [2] | log2 fold change [3] | log2 fold change [4] | log2 fold change (pinometostat) | log2 fold change [5] | log2 fold change [6] | log2 fold change [7] | log2 fold change [8] | log2 fold change [9] | log2 fold change [10] | log2 fold change (Nexturastat A) | log2 fold change [11] | log2 fold change [12] | log2 fold change (givinostat) | log2 fold change (barasertib) | log2 fold change (vemurafenib) |
| --- | --- | --- | --- | --- | --- | --- | --- | --- | --- | --- | --- | --- | --- | --- | --- | --- | --- | --- | --- | --- |
| ARL5A (UniProt Q9Y689) | inactive: 0.061 | inactive: 0.067 | inactive: 0.028 | inactive: 0.016 | inactive: -0.046 | inactive: 0.056 | inactive: -0.053 | inactive: -0.025 | inactive: 0.05 | inactive: 0.19 | inactive: -0.076 | inactive: 0.043 | inactive: 0.033 | inactive: 0.017 | inactive: -0.019 | inactive: 0.047 | inactive: -0.069 | inactive: -0.033 | inactive: 0.023 |  |
| ASH2L (UniProt Q9UBL3) | inactive: -0.022 | inactive: -0.048 | inactive: -0.046 | inactive: 0.004 | inactive: -0.018 | inactive: 0.016 | inactive: -0.004 | inactive: -0.013 |  | inactive: -0.044 | inactive: 0.018 | inactive: -0.047 | inactive: 0.003 | inactive: 0.01 | inactive: -0.003 | inactive: 0.071 | inactive: -0.022 | inactive: 0.031 | inactive: 0.007 | inactive: 0.057 |
| ATP2A3 isoform 2 (UniProt Q93084) | inactive: 0.038 | inactive: -0.013 | inactive: 0.001 | inactive: -0.023 | inactive: 0.018 | active: -0.295 | inactive: -0.044 | inactive: 0.005 |  | inactive: -0.009 | inactive: -0.024 | inactive: -0.001 | inactive: -0.013 | inactive: 0.004 | inactive: 0 | inactive: 0.032 | inactive: 0.042 | inactive: -0.01 | inactive: 0.011 | inactive: -0.004 |
| ARMC8 (UniProt Q8IUR7) | inactive: -0.025 | inactive: -0.017 | inactive: 0.036 | inactive: 0.084 | inactive: -0.011 | inactive: -0.01 | inactive: -0.093 | inactive: -0.021 |  | inactive: -0.07 | inactive: 0.017 | inactive: 0.039 | inactive: -0.049 | inactive: 0.006 | inactive: -0.002 | inactive: 0.027 | inactive: 0.065 | inactive: 0 | inactive: -0.025 | inactive: -0.017 |
| ATP7B (UniProt P35670) | inactive: -0.022 | inactive: -0.033 | inactive: 0.077 | inactive: 0.043 | inactive: 0.003 | inactive: 0.011 | inactive: 0.015 | inactive: 0.056 |  | inactive: 0.061 | inactive: -0.005 | inactive: -0.113 | inactive: 0.028 | inactive: 0.032 | inactive: -0.013 | inactive: 0.032 | inactive: 0.036 | inactive: -0.005 | inactive: -0.02 | inactive: -0.001 |
| ATP6V1G1 (UniProt O75348) | inactive: 0.006 | inactive: -0.006 | inactive: -0.021 | inactive: 0 | inactive: 0.038 | inactive: -0.099 | inactive: 0.037 | inactive: 0.016 | inactive: 0.021 | inactive: -0.011 | inactive: -0.049 | inactive: 0.002 | inactive: 0.037 | inactive: 0.022 | inactive: -0.009 | inactive: 0.006 | inactive: -0.023 | inactive: -0.005 | inactive: 0.006 | inactive: -0.092 |
| ATP6V1F isoform 2 (UniProt Q16864) | inactive: 0.053 | inactive: -0.003 | inactive: -0.189 | inactive: -0.054 | inactive: -0.132 | inactive: -0.024 | inactive: -0.059 | inactive: -0.009 |  | inactive: 0.253 | inactive: -0.139 | inactive: 0.034 | inactive: 0.011 | inactive: 0.06 | inactive: 0.146 | inactive: -0.055 | inactive: 0.038 | inactive: -0.044 | inactive: 0.072 | inactive: 0.123 |
| ATOX1 (UniProt O00244) | inactive: 0.018 | inactive: 0.01 | inactive: 0.154 | inactive: 0.23 | inactive: -0.005 | inactive: 0.109 | inactive: -0.198 | inactive: -0.153 |  | inactive: 0.099 | inactive: 0.056 | inactive: -0.065 | inactive: 0.275 | inactive: 0.239 | inactive: -0.037 | inactive: 0.372 | inactive: 0.28 | inactive: -0.072 | inactive: -0.025 | inactive: 0.054 |
| ARL6IP5 (UniProt O75915) | inactive: -0.002 | inactive: -0.043 | inactive: 0.019 | inactive: -0.06 | inactive: 0.006 | inactive: -0.144 | inactive: 0.004 | inactive: -0.042 | inactive: -0.029 | inactive: -0.01 | inactive: -0.033 | inactive: 0.064 | inactive: 0.001 | inactive: 0.025 | inactive: -0.065 | inactive: -0.029 | inactive: -0.028 | inactive: -0.028 | inactive: -0.001 | inactive: -0.017 |
| ATG4B isoform 2 (UniProt Q9Y4P1) | inactive: 0.127 | inactive: -0.038 | inactive: -0.102 | inactive: 0.134 | inactive: -0.194 | inactive: -0.299 | inactive: -0.137 | inactive: -0.013 |  | inactive: 0.114 | inactive: -0.046 | inactive: -0.287 | inactive: 0.218 | inactive: -0.072 | inactive: 0.132 | inactive: -0.02 | inactive: 0.031 | inactive: 0.126 | inactive: 0.126 | inactive: 0.087 |
| ASB6 (UniProt Q9NWX5) | inactive: 0.106 | inactive: -0.108 | inactive: 0.039 | inactive: 0.343 | inactive: -0.274 | inactive: -0.055 | inactive: 0.069 | inactive: -0.031 |  |  | inactive: -0.085 | inactive: -0.033 | inactive: 0.117 | inactive: -0.175 | inactive: 0.125 | inactive: 0.108 | inactive: -0.039 | inactive: 0.108 | inactive: 0.031 | inactive: -0.144 |
